Small-molecule microarray binding calls

Data from the ROBIN nucleic acid binder screens, doi:10.1002/anie.202211358.

Targets (5′ to 3′):
SAM-II: SAM-II riboswitch RNA pseudoknot, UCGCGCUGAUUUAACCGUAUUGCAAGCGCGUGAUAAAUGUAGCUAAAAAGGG. About 21,000 compounds screened, about 200 hits.
PreQ1: PreQ1 riboswitch RNA pseudoknot, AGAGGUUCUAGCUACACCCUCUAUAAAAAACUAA. From B. subtilis. About 24,000 compounds screened, about 170 hits.
TPP: TPP riboswitch RNA three-way junction, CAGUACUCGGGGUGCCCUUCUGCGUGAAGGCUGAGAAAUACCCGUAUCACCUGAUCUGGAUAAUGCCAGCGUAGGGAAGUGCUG. About 24,000 compounds screened, about 160 hits.

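The test is a small-molecule microarray: each compound is printed twice on a reactive slide, and binding shows as fluorescence of the labelled oligonucleotide after washing. The data file lists only calls. An earlier report of the laboratory on the PreQ1, TPP and SAM-II riboswitches (doi:10.1038/s41467-019-09493-3) used 1 µM RNA for 2 h and required a mean Z-score above 3 (spot signal-to-noise against the whole library), a score well above that on a control array, and duplicate spots agreeing (coefficient of variation under 100); it then also set aside compounds that hit other targets, which this list keeps. The cut-offs behind this list may differ. These are primary screening calls, not affinities; a compound without a hit may have attached poorly or may still bind in solution.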
A compound is marked 1 if it was called a hit and 0 if it was screened but was not.
This is an unselected part of the compounds tested.
A dash means that no call is listed here.

Compound,SAM-II,PreQ1,TPP
CC1CCC(Nc2c(-c3cccs3)[nH]c3c(C#N)cnn23)CC1 (stereo not shown),-,0,0
Cc1cccc(Nc2nc(-c3ccncc3)cs2)n1,0,0,0
CCCc1nn2c(N)c(C#N)nnc2c1-c1ccc(F)cc1,-,0,0
Cc1ccc(S(=O)(=O)N(C)CC(=O)NCCO)cc1,0,0,0
O=C(c1ccc(Cn2cccn2)o1)N1CCC2(CC1)c1ccccc1CC2O (stereo not shown),0,0,0
OC(C#CCN1CCOCC1)c1ccccc1 (stereo not shown),0,0,0
Cc1ccc(NC(=O)c2nnn(Cc3ccc(Br)cc3F)c2N)cc1,0,0,0
Cc1nc(-c2ccccc2)c(C(=O)N2CCOCC(O)C2)s1 (stereo not shown),0,0,0
Cc1ccc(OCCCn2c(CCCO)nc3ccccc32)cc1,0,0,0
CC(=O)N1C(=O)C2(C(C#N)=C(N)Oc3[nH]nc(C)c32)c2ccccc21 (stereo not shown),0,0,0
COc1ccccc1N(CC(O)COc1c(C)cccc1C)S(=O)(=O)c1ccccc1 (stereo not shown),0,0,0
Cc1cc(Nc2ccccc2Cl)nc(-c2ccccc2O)n1,0,0,0
CNCc1ccc(-c2[nH]c3cc(F)cc4c3c2CCNC4=O)cc1,0,0,0
Clc1ccc(-c2csc3ncnc(NCc4ccco4)c23)cc1,0,0,0
Cc1nc(=O)c(Cc2ccccc2O)c(-c2ccccc2)[nH]1,0,0,0
CCOC(=O)c1cc(CNCc2oncc2-c2ccc(OC)cc2)on1,0,0,0
COc1ccc(S(=O)(=O)N2CCN(c3cc(C)nc(NC4CCCCC4)n3)CC2)cc1,-,0,0
CCc1csc(CNC2CCc3ccc(OC)cc3C2)n1 (stereo not shown),0,0,0
O=C(O)C(=O)c1cn(Cc2ccccc2)c2ccc(-c3ccc(OC(F)(F)F)cc3)cc12,0,0,0
Cc1nc(C)c(C(=O)N2CCC3(CC2)[C@H](O)C[C@@H]3OCCN(C)C)s1,0,0,0
CC(C)(C)C1CCc2nc3ccccc3c(N)c2C1 (stereo not shown),0,0,0
c1ccc(Cn2ccnc2CNC2CCC3(CCNCC3)CC2)cc1,0,0,0
OC(CNc1ccccc1)CN1c2ccccc2Sc2ccccc21 (stereo not shown),0,0,0
CNCCN1C(=O)CC[C@H]2CN(C(=O)C3(Cn4ccnc4)CC3)CC[C@H]21,0,0,0
NCCc1c(C(=O)O)[nH]c2ccccc12,0,0,0
Cc1nc(N2CCCN([C@H]3COC[C@@H]3O)CC2)c2sccc2n1,0,0,0
Cc1cc(NCCC(C)C)n2nc(C)c(-c3ccc(F)cc3)c2n1,-,0,0
Cc1ccccc1Cn1c(C(=O)O)c(CNCc2ccco2)c2ccccc21,-,0,0
OC(c1ccccn1)C1CCN(Cc2ccc3c(c2)OCCO3)CC1 (stereo not shown),0,0,0
COc1cc(F)c(F)c(Nc2ccc(I)cc2F)c1NS(=O)(=O)C1(C[C@H](O)CO)CC1,0,0,0
Cn1cnc([N+](=O)[O-])c1-c1nnc(Nc2cccc(C(F)(F)F)c2)o1,0,0,0
O=C(O)CNc1cccc(C(=O)NCc2ccccc2-n2cncn2)c1,0,0,0
CC(C)[C@H]1CN(CCCO)C[C@@H]1NC(=O)CN1C(=O)CNC1=O,0,0,0
Cn1c(Cn2ccnc2)nnc1C1CCCN(C(=O)c2ccc(CO)o2)C1 (stereo not shown),0,0,0
CC(C)NC1C2CCC(CC2)C1(O)c1ccc(Cl)c(Cl)c1.CS(=O)(=O)O (stereo not shown),0,0,0
O=C(O)CNc1cccc(C(=O)NCCCn2ccnc2)c1,0,0,0
C=CCC1(CO)CCCN(C(=O)C2CCN(Cc3ccco3)CC2)C1 (stereo not shown),0,0,0
CN1C2CCC1CC(OC(=O)C(CO)c1ccccc1)C2 (stereo not shown),0,0,0
CCOc1ccccc1NC(=O)CSc1nc(N)c(C#N)cc1C#N,0,0,0
COc1ccc(-c2cc(CNC3Cc4ccccc4C3)no2)cc1,0,0,0
CCC(c1ccc(O)cc1)C(CC)c1ccc(O)cc1 (stereo not shown),0,0,0
Cc1cccc(OCCCCn2c(C(C)O)nc3ccccc32)c1 (stereo not shown),-,0,0
C=CCC1(CO)CCCN(S(=O)(=O)N2CCCC2)C1 (stereo not shown),0,0,0
CCN(C)C[C@@H]1CN(C(=O)c2cccc(-n3nnnc3C)c2)C[C@@H]1CO,0,0,0
Cc1ccc(NS(=O)(=O)c2cc(Br)cnc2N)cc1F,-,0,0
Cc1ccccc1-c1cn[nH]c1C1CCN(C(=O)c2cnc(N)nc2C)CC1,0,0,0
CCCN1CCCn2nc(CNC(=O)[C@@H](N)Cc3c[nH]cn3)cc2C1,0,0,0
Cc1cccc(Nc2c(-c3cccc(O)c3)nc3cnccn23)c1C,-,0,0
CCc1ccc([C@H]2C[C@@H](c3cccc(OC)c3)Nc3nc(N)nn32)cc1,0,0,0
COc1c(F)c(F)c(C(=O)O)c(Nc2cc(C)cc(C)c2)c1F,0,0,0
CCOc1ccc(N2C(=O)CC(NC3CCCCC3)C2=O)cc1 (stereo not shown),0,0,0